Binding data for two molecules are collected here from US20090060920A1.

No constants are given. Whether binding was seen depends on the method and setting. Some binding calls cover weakened binding; strength is not graded here.

The target in one experiment is Fab 5611. The experiment in a line: competition ELISA: peptide preincubated with 10 nM Fab 5611, mixture added to a plate coated with desacyl ghrelin, bound Fab detected with anti-mouse kappa-HRP, A490. On the technique in general: ELISA stands for enzyme-linked immunosorbent assay.
Experiment [1] concerns the target T1, desacyl human ghrelin (human).
T1 sequence (peptide): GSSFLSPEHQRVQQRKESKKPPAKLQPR
The experiment in a line: competition ELISA, FIG. 1.

Experiment [2] has as its target T2, 1-8 (cys) desacyl ghrelin (human).
T2 sequence (peptide): GSSFLSPEC
The experiment in a line: competition ELISA, FIG. 2.

The target of experiment [3] is T1, desacyl human ghrelin (human). The experiment in a line: competition ELISA, FIG. 2.
Experiment [4] shares this target. The experiment in a line: competition ELISA, FIG. 3.

As for GSSFLSPEC [1-8 (cys) desacyl ghrelin], the binding entry in the experiment with Fab 5611 is “binds”.

B1: Fab 5611 (Fab, V domains shown)
VH: QVQLQQSEAELVRPGSSVKISCKASGYAFSNYWMNWVKQRPGQGLEWIGQIYPGDGDTKYNGKFKGKATLTADKSSSSAYMQLSSLTSEDSAVYFCVITTVVGGDSDVWGAGTTVTVSS
VL: DLVLTQSPASLAVSLGQRATISCRASKSVSTSGYSYMHWYQQKPGQPPKLLIYLASNLESGVPARFSGSGSGTDFTLNIHPVEEEDAATYYCQHSRELPYTFGGGTKLEIKR
B1: the binding entry in experiment [1], in experiment [2], in experiment [3] and in experiment [4] was “binds” each time.
